Experimental findings from patent US20140162974A1, “METHODS FOR MODULATION OF PHOSPHORUS AND FGF23” (Luitpold Pharmaceuticals, Inc., priority 2012, published 2014) are described below.

This series has as its system intact FGF23 (iFGF23). As to the kind of experiment: Example 3 trial: serum intact FGF23. Format: in vivo, human. The settings on record: mean ± standard error; unit from the 3rd table. As to the method:
Study visits were on Days 0 (when iron was infused), 1 (24 hours after iron infusion), 7, 14, and 35. The primary objectives were to determine the effect of iron deficiency on cFGF23 and iFGF23 levels and the effect of intravenous iron on iFGF23 and cFGF23 levels.
Randomization occurred centrally via a fax-based system. […] The complete dose was infused over 15 minutes on day 0. […] An initial test dose of 25 mg was administered slowly over 5 minutes.
Laboratory testing of blood and three-hour urine collections was performed at the screening visit and on study days 0 (when iron was infused), 1 (24 hours after iron infusion), 7, 14, and 35 (see e.g., FIG. 2A). […]
Blood and urine samples were sent to a central laboratory for analysis (Covance Central Laboratory Service, Indianapolis, Ind.). Hemoglobin, blood counts, iron indices, electrolytes, and serum and urinary phosphate and creatinine were measured with standard, automated, multi-analyte techniques. Urinary fractional excretion of phosphate (FEPi) was calculated from the three-hour, morning urine collections as urinary phosphate x serum creatinine/serum phosphate x urinary creatinine. Serum levels of 25-hydroxyvitamin D and 1,25-dihydroxyvitamin D were measured in duplicate by radioimmunoassay (DiaSorin, Stillwater, Minn.) with intra-assay coefficients of variation (CV)<11.6%. […]

For “polynuclear iron (III)-hydroxide 4(R)-(poly-(1→4)-O-α-glucopyranosyl)-oxy-2(R),3(S),5(R),6-tetrahydroxy-hexanoate [FCM]”, the “Intact FGF23, Baseline” value was 28.6 ± 1.4 pg/mL.
